Results are given in words; binding and its absence hold for the method and conditions named. For part of these data: In cells and extracts the contact can be indirect. Some results given as binding are weak or reduced against the parent protein; the word gives no strength. Values belong to the substance of their own block, whether it stands above or below them.
Experiments:
[1] = biological target: OsGA2ox3 triple mutant C194A, K308A, K313A (3Mu) (rice (Oryza sativa)) (UniProt Q8S0S6); assay: SEC; purified monomer incubated at 10 mg/ml, 25 °C, 18 h in buffer C (pH 7.4) with 10 mM GA4; Superdex 200 10/300GL, eluted with buffer C + 1 mM GA4 at 4 °C; both purified
[2] = biological target: OsGA2ox3 3Mu (C194A, K308A, K313A) fused with N- or C-YFP (BiFC) (rice (Oryza sativa)) (UniProt Q8S0S6); assay: split reporter; BiFC: N-YFP and C-YFP fusions expressed together in rice T65 mesophyll protoplasts; confocal microscopy
[3] = biological target: Oryza sativa gibberellin 2-oxidase 3 (OsGA2ox3), wild type (rice (Oryza sativa)) (UniProt Q8S0S6); assay: SEC; OsGA2ox3 purified in the absence of GA4; gel filtration without GA4; both purified

Amino acid sequences for entries named in this document (tags omitted). A change or cut given only in a name is not applied to a line headed by its entry.
UniProt Q8S0S6: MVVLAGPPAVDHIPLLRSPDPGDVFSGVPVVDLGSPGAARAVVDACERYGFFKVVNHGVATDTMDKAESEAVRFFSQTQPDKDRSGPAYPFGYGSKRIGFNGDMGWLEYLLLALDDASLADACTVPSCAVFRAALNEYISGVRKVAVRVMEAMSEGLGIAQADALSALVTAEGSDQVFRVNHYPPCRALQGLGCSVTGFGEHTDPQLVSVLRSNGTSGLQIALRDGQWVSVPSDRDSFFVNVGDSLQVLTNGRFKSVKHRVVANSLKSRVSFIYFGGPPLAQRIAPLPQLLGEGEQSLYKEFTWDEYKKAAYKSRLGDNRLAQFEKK

Substance: OsGA2ox3 triple mutant C194A, K308A, K313A (3Mu) (from UniProt Q8S0S6 1-327) (enzyme)
binding [1]: no binding (tested: 10 mg/ml (with 10 mM GA4))

binding [2]: no binding
Substance: OsGA2ox3 3Mu (C194A, K308A, K313A) fused with N- or C-YFP (BiFC) (from UniProt Q8S0S6 1-327) (enzyme)

binding [3]: binds weakly
Substance: Oryza sativa gibberellin 2-oxidase 3 (OsGA2ox3), wild type (from UniProt Q8S0S6 1-327) (enzyme)

Reference: article PMC7195466, “A common allosteric mechanism regulates homeostatic inactivation of auxin and gibberellin” (Nature Communications, 2020)
